Source: PubChem BioAssay AID1224830 (NIAID, 2016)

- Purpose: 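Genes whose knock-down alters the TNF-alpha reporter response to LPS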 (primary screen)
- Cell system: human THP-1 monocytic leukaemia cells, TNF dual-luciferase reporter clone, PMA-differentiated to macrophage-like cells
- Reagents: siRNA pool against human genes, 50 nM
- Duration: LPS for 4 h, given about 3 days after siRNA transfection
- Challenge: bacterial LPS (TLR4 ligand), 10 ng/ml
- Read-out: 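Ratio of firefly to renilla light, scaled to the plate median and expressed as a robust z-score per replicate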
- Scale: TNF reporter robust z-score: higher = stronger TNF reporter response to LPS
- Hit rule: 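a well is active when its z-score exceeds 2.8 or falls below -1.5; control wells carry no call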
The whole screen tested about 18,000 reagents; shown is an unselected part. About 2,900 of them (16%) count as active. 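Calls are made per well; low scores hint the gene aids the LPS response, high scores that it dampens it.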 Entries without a mark were called inactive. Repeated entries: four replicate wells of each siRNA pool.

{"Target gene": "TGFB1I1 (transforming growth factor beta 1 induced transcript 1)", "PubChem SID": "SID315451848", "TNF reporter robust z-score": -0.28}
{"Target gene": "TGFB1I1 (transforming growth factor beta 1 induced transcript 1)", "PubChem SID": "SID315451848", "TNF reporter robust z-score": 0.73}
{"Target gene": "TGFB1I1 (transforming growth factor beta 1 induced transcript 1)", "PubChem SID": "SID315451848", "TNF reporter robust z-score": 0.05}
{"Target gene": "TGFB1I1 (transforming growth factor beta 1 induced transcript 1)", "PubChem SID": "SID315451848", "TNF reporter robust z-score": 0.33}
{"Target gene": "IZUMO1 (izumo sperm-oocyte fusion 1)", "PubChem SID": "SID315463769", "TNF reporter robust z-score": 0.11}
{"Target gene": "IZUMO1 (izumo sperm-oocyte fusion 1)", "PubChem SID": "SID315463769", "TNF reporter robust z-score": 1.43}
{"Target gene": "IZUMO1 (izumo sperm-oocyte fusion 1)", "PubChem SID": "SID315463769", "TNF reporter robust z-score": -0.06}
{"Target gene": "IZUMO1 (izumo sperm-oocyte fusion 1)", "PubChem SID": "SID315463769", "TNF reporter robust z-score": 0.46}
{"Target gene": "C2 (complement C2)", "PubChem SID": "SID315447611", "TNF reporter robust z-score": -1.04}
{"Target gene": "C2 (complement C2)", "PubChem SID": "SID315447611", "TNF reporter robust z-score": -1.38}
{"Target gene": "C2 (complement C2)", "PubChem SID": "SID315447611", "TNF reporter robust z-score": -1.18}
{"Target gene": "C2 (complement C2)", "PubChem SID": "SID315447611", "TNF reporter robust z-score": -0.4}
{"Target gene": "FKTN (fukutin)", "PubChem SID": "SID315448657", "TNF reporter robust z-score": -0.39}
{"Target gene": "FKTN (fukutin)", "PubChem SID": "SID315448657", "TNF reporter robust z-score": -0.2}
{"Target gene": "FKTN (fukutin)", "PubChem SID": "SID315448657", "TNF reporter robust z-score": 0.6}
{"Target gene": "FKTN (fukutin)", "PubChem SID": "SID315448657", "TNF reporter robust z-score": "3.06 (active)"}
{"Target gene": "ADGRV1 (adhesion G protein-coupled receptor V1)", "PubChem SID": "SID315460163", "TNF reporter robust z-score": 0.25}
{"Target gene": "ADGRV1 (adhesion G protein-coupled receptor V1)", "PubChem SID": "SID315460163", "TNF reporter robust z-score": 0.45}
{"Target gene": "ADGRV1 (adhesion G protein-coupled receptor V1)", "PubChem SID": "SID315460163", "TNF reporter robust z-score": 0.28}
{"Target gene": "ADGRV1 (adhesion G protein-coupled receptor V1)", "PubChem SID": "SID315460163", "TNF reporter robust z-score": 1.26}

Part of the list above, set out differently.
Target gene | PubChem SID | TNF reporter robust z-score
TGFB1I1 (transforming growth factor beta 1 induced transcript 1) | SID315451848 | -0.28
TGFB1I1 (transforming growth factor beta 1 induced transcript 1) | SID315451848 | 0.73
TGFB1I1 (transforming growth factor beta 1 induced transcript 1) | SID315451848 | 0.05
TGFB1I1 (transforming growth factor beta 1 induced transcript 1) | SID315451848 | 0.33
IZUMO1 (izumo sperm-oocyte fusion 1) | SID315463769 | 0.11
IZUMO1 (izumo sperm-oocyte fusion 1) | SID315463769 | 1.43
IZUMO1 (izumo sperm-oocyte fusion 1) | SID315463769 | -0.06
IZUMO1 (izumo sperm-oocyte fusion 1) | SID315463769 | 0.46

The listing continues.
{"Target gene": "HCRTR2 (hypocretin receptor 2)", "PubChem SID": "SID315449169", "TNF reporter robust z-score": "-1.51 (active)"}
{"Target gene": "HCRTR2 (hypocretin receptor 2)", "PubChem SID": "SID315449169", "TNF reporter robust z-score": -0.07}
{"Target gene": "HCRTR2 (hypocretin receptor 2)", "PubChem SID": "SID315449169", "TNF reporter robust z-score": -0.5}
{"Target gene": "HCRTR2 (hypocretin receptor 2)", "PubChem SID": "SID315449169", "TNF reporter robust z-score": 0.82}
{"Target gene": "CTNNBL1 (catenin beta like 1)", "PubChem SID": "SID315458058", "TNF reporter robust z-score": 0.52}
{"Target gene": "CTNNBL1 (catenin beta like 1)", "PubChem SID": "SID315458058", "TNF reporter robust z-score": 2.18}
{"Target gene": "CTNNBL1 (catenin beta like 1)", "PubChem SID": "SID315458058", "TNF reporter robust z-score": 0.48}
{"Target gene": "CTNNBL1 (catenin beta like 1)", "PubChem SID": "SID315458058", "TNF reporter robust z-score": 0.37}
{"Target gene": "ERN1 (endoplasmic reticulum to nucleus signaling 1)", "PubChem SID": "SID315448561", "TNF reporter robust z-score": -0.1}
{"Target gene": "ERN1 (endoplasmic reticulum to nucleus signaling 1)", "PubChem SID": "SID315448561", "TNF reporter robust z-score": 0.94}
{"Target gene": "ERN1 (endoplasmic reticulum to nucleus signaling 1)", "PubChem SID": "SID315448561", "TNF reporter robust z-score": -0.09}
{"Target gene": "ERN1 (endoplasmic reticulum to nucleus signaling 1)", "PubChem SID": "SID315448561", "TNF reporter robust z-score": 1.28}
{"Target gene": "CAPN1 (calpain 1)", "PubChem SID": "SID315447690", "TNF reporter robust z-score": -0.03}
{"Target gene": "CAPN1 (calpain 1)", "PubChem SID": "SID315447690", "TNF reporter robust z-score": 1.54}
{"Target gene": "CAPN1 (calpain 1)", "PubChem SID": "SID315447690", "TNF reporter robust z-score": 1.97}
{"Target gene": "CAPN1 (calpain 1)", "PubChem SID": "SID315447690", "TNF reporter robust z-score": 0.69}
{"Target gene": "TTC8 (tetratricopeptide repeat domain 8)", "PubChem SID": "SID315461569", "TNF reporter robust z-score": -0.07}
{"Target gene": "TTC8 (tetratricopeptide repeat domain 8)", "PubChem SID": "SID315461569", "TNF reporter robust z-score": 1.05}
{"Target gene": "TTC8 (tetratricopeptide repeat domain 8)", "PubChem SID": "SID315461569", "TNF reporter robust z-score": -0.03}
{"Target gene": "TTC8 (tetratricopeptide repeat domain 8)", "PubChem SID": "SID315461569", "TNF reporter robust z-score": -0.46}
{"Target gene": "PTGR3 (prostaglandin reductase 3)", "PubChem SID": "SID315463753", "TNF reporter robust z-score": 0.95}
{"Target gene": "PTGR3 (prostaglandin reductase 3)", "PubChem SID": "SID315463753", "TNF reporter robust z-score": 0.64}
{"Target gene": "PTGR3 (prostaglandin reductase 3)", "PubChem SID": "SID315463753", "TNF reporter robust z-score": 2.65}
{"Target gene": "PTGR3 (prostaglandin reductase 3)", "PubChem SID": "SID315463753", "TNF reporter robust z-score": 0.49}
{"Target gene": "SPATA2L (spermatogenesis associated 2 like)", "PubChem SID": "SID315461598", "TNF reporter robust z-score": 1.36}
{"Target gene": "SPATA2L (spermatogenesis associated 2 like)", "PubChem SID": "SID315461598", "TNF reporter robust z-score": 0.35}
{"Target gene": "SPATA2L (spermatogenesis associated 2 like)", "PubChem SID": "SID315461598", "TNF reporter robust z-score": 0.78}
{"Target gene": "SPATA2L (spermatogenesis associated 2 like)", "PubChem SID": "SID315461598", "TNF reporter robust z-score": 0.92}
{"Target gene": "MAGED4B (MAGE family member D4B)", "PubChem SID": "SID315459889", "TNF reporter robust z-score": -1.05}
{"Target gene": "MAGED4B (MAGE family member D4B)", "PubChem SID": "SID315459889", "TNF reporter robust z-score": -1.36}
{"Target gene": "MAGED4B (MAGE family member D4B)", "PubChem SID": "SID315459889", "TNF reporter robust z-score": -0.99}
{"Target gene": "MAGED4B (MAGE family member D4B)", "PubChem SID": "SID315459889", "TNF reporter robust z-score": 0.71}
{"Target gene": "GBA1 (glucosylceramidase beta 1)", "PubChem SID": "SID315448849", "TNF reporter robust z-score": -0.99}
{"Target gene": "GBA1 (glucosylceramidase beta 1)", "PubChem SID": "SID315448849", "TNF reporter robust z-score": -1.2}
{"Target gene": "GBA1 (glucosylceramidase beta 1)", "PubChem SID": "SID315448849", "TNF reporter robust z-score": -0.34}
{"Target gene": "GBA1 (glucosylceramidase beta 1)", "PubChem SID": "SID315448849", "TNF reporter robust z-score": -0.24}
{"Target gene": "SH2D6 (SH2 domain containing 6)", "PubChem SID": "SID315463813", "TNF reporter robust z-score": -0.74}
{"Target gene": "SH2D6 (SH2 domain containing 6)", "PubChem SID": "SID315463813", "TNF reporter robust z-score": 0.32}
{"Target gene": "SH2D6 (SH2 domain containing 6)", "PubChem SID": "SID315463813", "TNF reporter robust z-score": 0.03}
{"Target gene": "SH2D6 (SH2 domain containing 6)", "PubChem SID": "SID315463813", "TNF reporter robust z-score": -0.46}
